Structures can show the parent of a compound that is named as a salt. This is one part of the list. Most values lie at the level of the controls, where differences are scatter.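 A single-replicate pilot screen of approved drugs and clinical or known-target compounds measured melting temperature via differential scanning fluorimetry. Top stabilizing hits raised the melting point by 2 °C or more; negative shifts indicate destabilization.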
These compounds were tested on SARS-CoV-2 main protease (Mpro, nsp5) (assay: thermal shift ΔTm of Mpro relative to plate average Tm; higher = stronger thermal stabilization of Mpro (binding)). Conditions: 10 µM; protein concentration 1 µM.

In order of falling “thermal shift ΔTm of Mpro” value:
1. COc1cccc(NCC(O)Cn2c3ccc(Br)cc3c3cc(Br)ccc32)c1 (stereo in doubt)  0.368 °C
2. C#C[C@]1(O)CC[C@H]2[C@@H]3CCC4=CC(=O)CC[C@@H]4[C@H]3C(=C)C[C@@]21CC [Etonogestrel]  0.325 °C
3. COCC1(CO)C(=O)C2CCN1CC2 (stereo not given)  0.293 °C
4. Cc1c(O)c(=O)n(-c2ccccc2)n1C [4-Hydroxyantipyrine]  0.278 °C
5. Cc1ccccc1-n1c(Cn2cnc3c(N)ncnc32)nc2cccc(C)c2c1=O  0.201 °C
6. CCOC(=O)[C@H](CCc1ccccc1)N[C@@H](C)C(=O)N1C(=O)N(C)C[C@H]1C(=O)O [Imidapril HCl]  0.171 °C
7. C[C@]12CCC3=C4CCC(=O)C=C4CC[C@H]3[C@@H]1CC[C@@]2(O)CC#N [Dienogest]  0.163 °C
8. NC(=O)c1ccc(I)c([N+](=O)[O-])c1 [Iniparib (BSI-201)]  0.134 °C
9. OCCn1cc(-c2cnc3nnn(Cc4ccc5ncccc5c4)c3n2)cn1  0.13 °C
10. C[C@@H]1C[C@H]2[C@@H]3CCC4=CC(=O)C=C[C@]4(C)[C@@]3(Cl)[C@@H](O)C[C@]2(C)[C@@]1(OC(=O)c1ccco1)C(=O)CCl [Mometasone furoate]  0.114 °C
11. O=C(O)c1ccccc1OP(=O)(O)O [Fosfosal]  0.079 °C
12. CN/C(=N\CCSCc1nc[nH]c1C)NC#N [Cimetidine]  0.0424 °C
13. COc1ccc(S(=O)(=O)N(Cc2cccnc2)[C@@H](C(=O)NO)C(C)C)cc1  0.0379 °C
14. CC(C)OC(=O)C(C)(C)Oc1ccc(C(=O)c2ccc(Cl)cc2)cc1 [Fenofibrate]  0.0371 °C
15. Cc1[nH]nc(C(F)(F)F)c1Cc1sc2c(c1C(=O)N1C[C@](C)(O)CO1)c(=O)n(C)c(=O)n2C(C)C  0.00683 °C
16. CNC(=O)c1ccc(Nc2ncc(C(F)(F)F)c(NCc3nccnc3N(C)S(C)(=O)=O)n2)cc1 [Defactinib]  0.00307 °C
17. O=c1oc2cc(O)ccc2s1 [Tioxolone]  -0.000774 °C
18. O=C(O)c1cc(N(Cc2ccccc2O)Cc2cc(O)ccc2O)ccc1O [lavendustin A]  -0.00392 °C
19. COc1cc2ncnc(-n3nc(-c4ccccn4)nc3N)c2cc1OC  -0.00659 °C
20. CS(=O)(=O)c1ccc(-c2nnc(/C=C/c3nnc(-c4ccc(C#N)cc4)o3)n2-c2ccccc2Cl)nc1  -0.00983 °C
21. C=C[C@H]1CN2CC[C@H]1C[C@H]2[C@H](O)c1ccnc2ccccc12 [Cinchonidine]  -0.0233 °C
22. O=C(O)[C@H](CC(=O)N1C[C@H]2CCCC[C@H]2C1)Cc1ccccc1 [Mitiglinide calcium]  -0.0305 °C
23. O=C(NN=Cc1c(O)ccc2ccccc12)c1ccncc1  -0.0397 °C
24. COc1cc2ncnc(Nc3cccc(Cl)c3)c2cc1OC [AG-1478 (Tyrphostin AG-1478)]  -0.0444 °C
25. Cc1ccc(NC(=O)C2(c3ccc4c(c3)OC(F)(F)O4)CC2)nc1-c1cccc(C(=O)O)c1 [VX-809 (Lumacaftor)]  -0.0445 °C
26. CC(C)N(CCCCOCC(=O)NS(C)(=O)=O)c1cnc(-c2ccccc2)c(-c2ccccc2)n1 [Selexipag]  -0.0447 °C
27. c1coc(CNc2ncnc3[nH]cnc23)c1 [Kinetin]  -0.05 °C
28. C/C(=C\C(=O)OCCCCCCCCC(=O)O)C[C@@H]1OC[C@H](C[C@@H]2O[C@H]2[C@@H](C)[C@H](C)O)[C@@H](O)[C@H]1O [Mupirocin]  -0.0585 °C
29. Cc1cccc(C(C)c2c[nH]cn2)c1C (stereo not given) [Medetomidine HCl]  -0.0613 °C
30. Cc1ncc([N+](=O)[O-])n1CC(C)O (stereo not given) [Secnidazole]  -0.0697 °C
31. O=C(O)c1ccc2nc(-c3cc(Cl)cc(Cl)c3)oc2c1 [Tafamidis]  -0.0794 °C
32. C=C1c2cccc(O)c2C(O)=C2C(=O)[C@]3(O)C(O)=C(C(N)=O)C(=O)[C@@H](N(C)C)[C@@H]3[C@@H](O)[C@H]12 [Methacycline HCl]  -0.0903 °C
33. Nc1ncnc2c1ncn2C1OC(COP(=O)(O)O)C(O)C1O (stereo not given) [Adenosine 5'-monophosphate monohydrate]  -0.105 °C
34. O=C(O)c1cc(/N=N/c2ccc(S(=O)(=O)Nc3ccccn3)cc2)ccc1O [Sulfasalazine]  -0.159 °C
35. COc1ccc(C2=N[C@@H](c3ccc(Cl)cc3)[C@@H](c3ccc(Cl)cc3)N2C(=O)N2CCNC(=O)C2)c(OC(C)C)c1 [Nutlin-3]  -0.179 °C
36. COc1ccc(C2=N[C@@H](c3ccc(Cl)cc3)[C@@H](c3ccc(Cl)cc3)N2C(=O)N2CCNC(=O)C2)c(OC(C)C)c1 [Nutlin-3a]  -0.225 °C
37. c1ccc(-c2oc3ncnc(NC[C@@H]4CCCO4)c3c2-c2ccccc2)cc1  -0.253 °C
38. O=[N+]([O-])c1ccc(S(=O)(=O)N2CCN(c3ccnc4cc(Cl)ccc34)CC2)c([N+](=O)[O-])c1  -0.389 °C
39. N#C/C(=C\c1ccc(O)c(O)c1)C(=O)NCCCc1ccccc1  -0.41 °C
40. OCCOc1ccc(/C(=C(/CCCl)c2ccccc2)c2ccccc2)cc1 [Ospemifene]  -0.448 °C

Reference: the supplement of paper PMC8166895
